Among the data in paper doi:10.1101/2022.01.25.477707 (bioRxiv, 2022) are binding values, retold here.

Results are given in words; binding and its absence hold for the method and conditions named. Binding seen in cells or lysates may run through a third protein. A yes stands for co-enrichment or nearness to the bait. Other partners may have been found.

In this experiment the target is G5_(845-1508)-WT-TAP (human) (UniProt Q8TEQ6). In words: affinity purification with mass spectrometry.

B1: Gemin5 endogenous protein (natural protein, human (endogenous in HEK293), UniProt Q8TEQ6 1-1508, looked up)
chain: MGQEPRTLPPSPNWYCARCSDAVPGGLFGFAARTSVFLVRVGPGAGESPGTPPFRVIGELVGHTERVSGFTFSHHPGQYNLCATSSDDGTVKIWDVETKTVVTEHALHQHTISTLHWSPRVKDLIVSGDEKGVVFCYWFNRNDSQHLFIEPRTIFCLTCSPHHEDLVAIGYKDGIVVIIDISKKGEVIHRLRGHDDEIHSIAWCPLPGEDCLSINQEETSEEAEITNGNAVAQAPVTKGCYLATGSKDQTIRIWSCSRGRGVMILKLPFLKRRGGGIDPTVKERLWLTLHWPSNQPTQLVSSCFGGELLQWDLTQSWRRKYTLFSASSEGQNHSRIVFNLCPLQTEDDKQLLLSTSMDRDVKCWDIATLECSWTLPSLGGFAYSLAFSSVDIGSLAIGVGDGMIRVWNTLSIKNNYDVKNFWQGVKSKVTALCWHPTKEGCLAFGTDDGKVGLYDTYSNKPPQISSTYHKKTVYTLAWGPPVPPMSLGGEGDRPSLALYSCGGEGIVLQHNPWKLSGEAFDINKLIRDTNSIKYKLPVHTEISWKADGKIMALGNEDGSIEIFQIPNLKLICTIQQHHKLVNTISWHHEHGSQPELSYLMASGSNNAVIYVHNLKTVIESSPESPVTITEPYRTLSGHTAKITSVAWSPHHDGRLVSASYDGTAQVWDALREEPLCNFRGHRGRLLCVAWSPLDPDCIYSGADDFCVHKWLTSMQDHSRPPQGKKSIELEKKRLSQPKAKPKKKKKPTLRTPVKLESIDGNEEESMKENSGPVENGVSDQEGEEQAREPELPCGLAPAVSREPVICTPVSSGFEKSKVTINNKVILLKKEPPKEKPETLIKKRKARSLLPLSTSLDHRSKEELHQDCLVLATAKHSRELNEDVSADVEERFHLGLFTDRATLYRMIDIEGKGHLENGHPELFHQLMLWKGDLKGVLQTAAERGELTDNLVAMAPAAGYHVWLWAVEAFAKQLCFQDQYVKAASHLLSIHKVYEAVELLKSNHFYREAIAIAKARLRPEDPVLKDLYLSWGTVLERDGHYAVAAKCYLGATCAYDAAKVLAKKGDAASLRTAAELAAIVGEDELSASLALRCAQELLLANNWVGAQEALQLHESLQGQRLVFCLLELLSRHLEEKQLSEGKSSSSYHTWNTGTEGPFVERVTAVWKSIFSLDTPEQYQEAFQKLQNIKYPSATNNTPAKQLLLHICHDLTLAVLSQQMASWDEAVQALLRAVVRSYDSGSFTIMQEVYSAFLPDGCDHLRDKLGDHQSPATPAFKSLEAFFLYGRLYEFWWSLSRPCPNSSVWVRAGHRTLSVEPSQQLDTASTEETDPETSQPEPNRPSELDLRLTEEGERMLSTFKELFSEKHASLQNSQRTVAEVQETLAEMIRQHQKSQLCKSTANGPDKNEPEVEAEQPLCSSQSQCKEEKNEPLSLPELTKRLTEANQRMAKFPESIKAWPFPDVLECCLVLLLIRSHFPGCLAQEMQQQAQELLQKYGNTKTYRRHCQTFCM
B1: the binding entry is listed as “binds”.
